Earlier results as cited in EP1207395A1, “METHOD FOR MEASURING KINASE ACTIVITY OF CYCLIN/CDK COMPLEX” (Medical & Biological Laboratories Co., Ltd., priority 1999, dated 2001).
At least one compound was matched to its structure with a doubt left.

Chains of the proteins cited; added tags and fusions are not shown.
UniProt P11802, whole entry, species assumed: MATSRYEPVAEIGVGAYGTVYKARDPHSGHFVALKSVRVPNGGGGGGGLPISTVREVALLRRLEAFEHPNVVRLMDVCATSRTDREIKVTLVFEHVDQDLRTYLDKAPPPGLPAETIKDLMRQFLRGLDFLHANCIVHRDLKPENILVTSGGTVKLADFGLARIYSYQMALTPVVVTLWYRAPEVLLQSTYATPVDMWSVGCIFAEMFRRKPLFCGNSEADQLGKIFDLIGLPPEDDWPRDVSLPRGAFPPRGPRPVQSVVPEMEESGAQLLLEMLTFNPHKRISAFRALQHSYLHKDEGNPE

Molecular target: CDK4 (Homo sapiens, UniProt P11802)
Details: reported in the literature (Meijer et al. 1997); cited from earlier work

Cn1cnc2c(NCc3ccccc3)nc(NCCO)nc21 [Olomoucine]
inhibitory effect on cdk4: remarkably weak inhibitory effect
